42 sequences from paper PMC7819943, “Rice protein-binding microarrays: a tool to detect cis-acting elements near promoter regions in rice” can be followed below.

By UniProt entry, the sequences of proteins in these tests, tags left out.
UniProt Q0JBA9, entry or part of it: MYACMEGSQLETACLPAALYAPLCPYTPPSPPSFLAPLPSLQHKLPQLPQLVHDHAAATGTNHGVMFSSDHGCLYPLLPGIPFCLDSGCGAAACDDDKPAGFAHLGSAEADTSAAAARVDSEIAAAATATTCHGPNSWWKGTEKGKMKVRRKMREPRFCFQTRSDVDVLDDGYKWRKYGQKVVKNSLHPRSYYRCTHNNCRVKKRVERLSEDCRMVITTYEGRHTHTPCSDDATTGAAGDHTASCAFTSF

The list shows a part of the results.

The test addresses OsWRKY34 (Oryza sativa, UniProt Q0JBA9 1-250). Nature of the test: protein-binding microarray (RPBM); PBS, 2% BSA, 51.3 ng/ul salmon testes DNA, 50 uM zinc acetate, 200 nM TF, 25 C, 1 h; high values mean tight binding. As to conditions: protein: recombinant; tags: N-terminal polyhistidine and DsRed monomer fusion (pET32a); label: CyDye5-dUTP incorporated in the synthesized complementary strand; 3' TTTTT single-stranded linker to array surface; dsDNA, one strand shown. In a few lines:
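The binding signal is fluorescence intensity per feature, in arbitrary units, read on an Axon 4000B scanner. Polyhistidine- and DsRed-tagged transcription factors (N-terminal fusions) from E. coli BL21-CodonPlus were purified on Ni–NTA and applied at 200 nM for 1 h at 25 °C to a double-stranded, BSA-blocked custom Agilent array in buffer with 50 µM zinc acetate.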
Consider “CGATCGGGCCGCGGCGCGAGGGAGGGGATCGGTGCGCGCGCGGAGTCACCTAGTGCAG”, for which the binding signal is 8060 fluorescence intensity (a.u.).

With “GAGGAGGGACTCGGGGCGGGAGGAAGACGGCGAGGAGGGGCGGAGTCACCTAGTGCAG”, the binding signal is 16500 fluorescence intensity (a.u.).

In the case of “GCTTCCCAAATAGTCCTAACTCCAAGTCTTTTTTTTTAACCGGAGTCACCTAGTGCAG”, the binding signal was 8290 fluorescence intensity (a.u.).

“CAACCAGCCAACTGTCCACCTAATGCTCAGATTAACACTACGGAGTCACCTAGTGCAG”: the binding signal is 8810 fluorescence intensity (a.u.).

For the sequence “AAGACAAAATATTCTGGTATTCTCATGTGCATTTCATTTTCGGAGTCACCTAGTGCAG”, the binding signal is 8040 fluorescence intensity (a.u.).

On to “TTGTTACCGCCTTTTTGACGCCCGCATCTCCGTCCATCGACGGAGTCACCTAGTGCAG”, for which the binding signal was 15800 fluorescence intensity (a.u.).

On to “CGTGTTCGGTGTTTCGGTGCGGCGGCCATATATACGCGCGCGGAGTCACCTAGTGCAG”, for which the binding signal is 8350 fluorescence intensity (a.u.).

On to “CGGCAACGGCAGCGGCAGCGGCAGCATCGACCATGAAGACCGGAGTCACCTAGTGCAG”, for which the binding signal is 9120 fluorescence intensity (a.u.).

Regarding “TTCTCTATTTGGTTTTGTCACTGGTCAATGCCACCAACTGCGGAGTCACCTAGTGCAG”, the binding signal was 8260 fluorescence intensity (a.u.).

With “CAATTGTTCCACCTCCAGCTGTTCTTGCTACTACAATCTGCGGAGTCACCTAGTGCAG”, the binding signal was 9540 fluorescence intensity (a.u.).

For “CCTACTCCGTTCAGTTTCTCCCCGGTGTCAAACTTGTCAACGGAGTCACCTAGTGCAG”, the binding signal is 9410 fluorescence intensity (a.u.).

As for “AGCCATCTTACATATTATTTTTACTTATTGTTATCATACTCGGAGTCACCTAGTGCAG”, the binding signal was 11400 fluorescence intensity (a.u.).

As for “AGGTACCCGTCGTATTTGGTTTTCTGGTTGAAGGACTTAACGGAGTCACCTAGTGCAG”, the binding signal was 10600 fluorescence intensity (a.u.).

Take “ATTCTGCCCACCTGCTTACAATCTATTTCAGTTCTGTTGCCGGAGTCACCTAGTGCAG”: the binding signal is 12000 fluorescence intensity (a.u.).

“TTAGTGCACATGTCATTCGGATGGTGAGTTATTTTCTAATCGGAGTCACCTAGTGCAG”: the binding signal is 8440 fluorescence intensity (a.u.).

Take “TTCCTGTCTTTCATTCATTATTTGAAAGTGGATTTTTTATCGGAGTCACCTAGTGCAG”: the binding signal is 8830 fluorescence intensity (a.u.).

Turning to “GAAACTCCGTTCTTTCTTCCTTTTGGCCCAATCTTTTATCCGGAGTCACCTAGTGCAG”, the binding signal is 9760 fluorescence intensity (a.u.).

For the sequence “TAGGCCAGGGTGGGAGACCTATTGATAATTTTTACACTTACGGAGTCACCTAGTGCAG”, the binding signal is 11400 fluorescence intensity (a.u.).

For the sequence “GTTGAATCTATCATAACCATTGCTGTGTGTGCCAGGCCAACGGAGTCACCTAGTGCAG”, the binding signal is 8150 fluorescence intensity (a.u.).

Take “AAGTTCTCGTCAATTTTTTTTGTTCGCTGATCAACTATAGCGGAGTCACCTAGTGCAG”: the binding signal is 8040 fluorescence intensity (a.u.).

As to “GGTTGGGTGTTTTTGCTTCTCTTGTAGTCTTTGTGTAGAACGGAGTCACCTAGTGCAG”, the binding signal was 21500 fluorescence intensity (a.u.).

As for “CTACAGTCGATTTTTTTTCAGCCACTTACACAGTATTTATCGGAGTCACCTAGTGCAG”, the binding signal was 9800 fluorescence intensity (a.u.).

Take “GCTCGATTGCCTTTTCATCATTCACATTGTTCTTCTTCTTCGGAGTCACCTAGTGCAG”: the binding signal is 9180 fluorescence intensity (a.u.).

Take “AGGGACCTTCGGTGTACTTTTTCCTTTTTTTTACTTTGAGCGGAGTCACCTAGTGCAG”: the binding signal was 9610 fluorescence intensity (a.u.).

Consider “CCAGCCCCTCAACCTTCGGTTTGCAGACAGTTTGCCAGCTCGGAGTCACCTAGTGCAG”, for which the binding signal was 8380 fluorescence intensity (a.u.).

For “CAAACCTACTACCACTTCGATCACTGTACCTATAAATTTTCGGAGTCACCTAGTGCAG”, the binding signal is 9410 fluorescence intensity (a.u.).

Turning to “CCTAAAACATCGCAATTGATGTCTATGCTCGTACATTTTCCGGAGTCACCTAGTGCAG”, the binding signal was 11500 fluorescence intensity (a.u.).

Take “GCTAGCGCTATATATATTTTCTCAGTTTGCTTACTACTATCGGAGTCACCTAGTGCAG”: the binding signal was 12200 fluorescence intensity (a.u.).

Regarding “AGTCCCAAGTCACAACTGACAACAAGGCAACTACTACTACCGGAGTCACCTAGTGCAG”, the binding signal is 8360 fluorescence intensity (a.u.).

In the case of “GGGGTGTTCACTGAAATGCTATTTTGGGTCTTTTTGAGTACGGAGTCACCTAGTGCAG”, the binding signal is 15100 fluorescence intensity (a.u.).

As for “AATAATGCTTACGACCCCTAATTTCCATCCCCACCATTGACGGAGTCACCTAGTGCAG”, the binding signal was 8120 fluorescence intensity (a.u.).

As to “TCTCTTTAATAGTACCTACATATACTGCTGAACTGAAGACCGGAGTCACCTAGTGCAG”, the binding signal is 10100 fluorescence intensity (a.u.).

Regarding “CCTCCGTCCCTCGCCCGCGCGAGCTACGTACTACGTTTACCGGAGTCACCTAGTGCAG”, the binding signal is 8530 fluorescence intensity (a.u.).

As to “AAAAATACATAGTATAGTTGTCCACGTGCCTTGTTTTTTCCGGAGTCACCTAGTGCAG”, the binding signal is 10000 fluorescence intensity (a.u.).

Regarding “CCCCGTTCGATCTGACAATACGCCATGTCACCTAACAAGACGGAGTCACCTAGTGCAG”, the binding signal was 8560 fluorescence intensity (a.u.).

With “GATTGTTCATTTCACTTGTTCTGTGCTATTCTCTGTTTGTCGGAGTCACCTAGTGCAG”, the binding signal was 10800 fluorescence intensity (a.u.).

With “AACAAAATCTCCTTACTACCTACTAGCTGCCTTTGCTTCTCGGAGTCACCTAGTGCAG”, the binding signal is 8380 fluorescence intensity (a.u.).

As for “TTACAGGCATCTTCATCGTTTGTTCTTCAGCTTATCAACTCGGAGTCACCTAGTGCAG”, the binding signal was 8210 fluorescence intensity (a.u.).

On to “CTTTGCCACCTTTCGGTGTGATCTTGGCGTTGCCCTTCTCCGGAGTCACCTAGTGCAG”, for which the binding signal is 8640 fluorescence intensity (a.u.).

For “GGTCCCTAAACTTGCTTAGCCGTACATCACCTGTCCAAATCGGAGTCACCTAGTGCAG”, the binding signal is 8710 fluorescence intensity (a.u.).

As for “GGTCAATGGCCGTCGTCGGTCGCATGCAGCTTCACGTTTCCGGAGTCACCTAGTGCAG”, the binding signal was 8530 fluorescence intensity (a.u.).

“CATTTTACATGTTCTGCAGCATTCTCTTATGTAATTCAAACGGAGTCACCTAGTGCAG”: the binding signal is 8780 fluorescence intensity (a.u.).
